The supplement of paper PMC12067093, “Discovery and optimisation of a covalent ligand for TRIM25 and its application to targeted protein ubiquitination” (Chemical Science, 2025)
Some of the results follow.

Compound: CC1Cc2ccccc2N1C(=O)C1CCCN(C1)C(=O)CCl (mixture of isomers) [TRIM25 ligand 11 (diastereomer mixture)]
Experiment: probe-labelled cysteine peptide fold change vs DMSO (competition) (log2 fold change); higher = less target engagement (more negative = stronger competition)
Details: THP-1, incubation time: 4 h
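Also: competitive chemoproteomic profiling in live THP-1 cells with an iodoacetamide desthiobiotin (IA-DTB) probe, comparing probe-labelled peptide intensities in compound-treated cells against DMSO-treated controls.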

| Target | probe-labelled cysteine peptide fold change (10 µM) | probe-labelled cysteine peptide fold change (50 µM) |
| --- | --- | --- |
| DNAJA3_Q96EY1_256_VQHCHYCGGSGMETINTGPFVMR (UniProt Q96EY1) | -0.0963 | 0.0469 |
| DNAJA3_Q96EY1_236_EFTVNIMDTCER (UniProt Q96EY1) | -0.079 | -0.0851 |
| DHX38_Q92620_20_GDTSEDASIHRLEGTDLDCQVGGLICK (UniProt Q92620) | 0.106 | -0.445 |
| DIAPH1_O60610_1227_AGCAVTSLLASELTK (UniProt O60610) | -0.0516 | -0.221 |
| DHX36_Q9H2U1_284_AESCGSGNSTGYQIR (UniProt Q9H2U1) | 0.03 | -0.0409 |
| DIS3_Q9Y2L1_474+492_HLCICSVDPPGCTDIDDALHCR (UniProt Q9Y2L1) | -0.14 | -0.143 |
| DNAAF5_Q86Y56_773_MAAASTLVTWLQCVK (UniProt Q86Y56) | 0.176 | 0.0549 |
| DNAJA2_O60884_280_IGLVEALCGFQFTFK (UniProt O60884) | 0.161 | 0.21 |
| DHRS4L2_Q6PKH6_86_KQQNVDQAVATLQGEGLSVTGTVCHVGK (UniProt Q6PKH6) | -0.0195 | -0.116 |
| DNAJA3_Q96EY1_292_GSIIISPCVVCR (UniProt Q96EY1) | 0.144 | 0.185 |
| DHPS_P49366_177_IGNLLVPNENYCK (UniProt P49366) | 0.0193 | -0.193 |
| DICER1_Q9UPY3_1584_AAQLFLCSLGLK (UniProt Q9UPY3) | -0.0564 | -0.0272 |
| DIS3L_Q8TF46_962_CHSDTIR (UniProt Q8TF46) | 0.154 | -0.0623 |
| DIAPH1_O60610_1227_KAGCAVTSLLASELTK (UniProt O60610) | -0.315 | -0.271 |

A portion of the results above, for reference:

| Target | probe-labelled cysteine peptide fold change (10 µM) | probe-labelled cysteine peptide fold change (50 µM) |
| --- | --- | --- |
| DNAJA3_Q96EY1_256_VQHCHYCGGSGMETINTGPFVMR (UniProt Q96EY1) | -0.0963 | 0.0469 |
| DNAJA3_Q96EY1_236_EFTVNIMDTCER (UniProt Q96EY1) | -0.079 | -0.0851 |
| DHX38_Q92620_20_GDTSEDASIHRLEGTDLDCQVGGLICK (UniProt Q92620) | 0.106 | -0.445 |
| DIAPH1_O60610_1227_AGCAVTSLLASELTK (UniProt O60610) | -0.0516 | -0.221 |
